PubChem BioAssay AID686943 | Drosophila RNAi Screening Center – 2013

Assay: 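Search across the genome for regulators of signalling from receptor tyrosine kinase to ERK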 (primary screen)
Cells: Drosophila S2R+ haemocyte-like cells expressing YFP-tagged ERK (Rolled)
Reagents: long dsRNA against Drosophila genes
Treatment: insulin stimulation versus unstimulated cells; dose and duration not given
Measurement: 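Per-plate z-scores of phospho-ERK immunostaining normalised to YFP-tagged ERK, measured with and without insulin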
Reading the numbers: replicate 1, z-score of dpERK with insulin: higher = more active ERK per ERK-YFP after insulin
In all, the deposit lists about 23,000 reagents; this is a random part of those with a known target gene and a result. 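Extra replicates exist only for a retested subset of genes; insulin dose and duration not given; both raised and lowered dpERK matter.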 Names joined by + are all predicted targets of the reagent. Further read-outs or replicates are left out here. Not stated in the record: the amount of reagent, the time to read-out.

Which result is listed for lncRNA:CR32657 (GeneID 3772397) [DRSC19403]?
replicate 1, z-score of dpERK with insulin: -0.55

Which result is listed for DIP-eta (GeneID 33793) [DRSC02342]?
replicate 1, z-score of dpERK with insulin: 0.72

What did the screen give for CG6462 (GeneID 38681) [DRSC10641]?
replicate 1, z-score of dpERK with insulin: -0.17

What did the screen give for CG3330 (GeneID 43296) [DRSC15477]?
replicate 1, z-score of dpERK with insulin: 0.57

What is on record for side-II (GeneID 3346206) [DRSC01427]?
replicate 1, z-score of dpERK with insulin: 0.4

For side-II (GeneID 3346206) [DRSC01429], what was measured?
replicate 1, z-score of dpERK with insulin: -0.35

With side-II (GeneID 3346206) [DRSC01913], what does the deposit list?
replicate 1, z-score of dpERK with insulin: 0.26

Which result is listed for side-II (GeneID 3346206) [DRSC01932]?
replicate 1, z-score of dpERK with insulin: 0.05

Which result is listed for side-II (GeneID 3346206) [DRSC02480]?
replicate 1, z-score of dpERK with insulin: -0.02

For side-II (GeneID 3346206) [DRSC22508], what does the deposit list?
replicate 1, z-score of dpERK with insulin: -0.17

With CG8908 (GeneID 37293) [DRSC07297], how do the results read?
replicate 1, z-score of dpERK with insulin: 0.13

For CG8664 (GeneID 32719) [DRSC20116], what was measured?
replicate 1, z-score of dpERK with insulin: 0.38

Which result is listed for lncRNA:CR43314 (GeneID 12798160) [DRSC01216]?
replicate 1, z-score of dpERK with insulin: 0.7

For lncRNA:CR43314 (GeneID 12798160) [DRSC21354], what was measured?
replicate 1, z-score of dpERK with insulin: -0.57

For Pgm2b (GeneID 36649) [DRSC05978], what does the deposit list?
replicate 1, z-score of dpERK with insulin: 0.56

For toc (GeneID 33526) [DRSC00169], what was measured?
replicate 1, z-score of dpERK with insulin: 0.54

What is on record for toc (GeneID 33526) [DRSC00171]?
replicate 1, z-score of dpERK with insulin: -0.28

For toc (GeneID 33526) [DRSC00842], what was measured?
replicate 1, z-score of dpERK with insulin: 0.94

For Rab7 (GeneID 42841) [DRSC16810], what does the deposit list?
replicate 1, z-score of dpERK with insulin: -0.32

How did the screen score spirit (GeneID 31797) [DRSC18202]?
replicate 1, z-score of dpERK with insulin: -0.38

How did the screen score CG15021 (GeneID 38546) [DRSC08475]?
replicate 1, z-score of dpERK with insulin: 1.36

How did the screen score CR11386 + CR33222 [DRSC17781]?
replicate 1, z-score of dpERK with insulin: -0.69

What is on record for ewg (GeneID 30975) [DRSC18773]?
replicate 1, z-score of dpERK with insulin: 2.03

Which result is listed for Gel (GeneID 46008) [DRSC12350]?
replicate 1, z-score of dpERK with insulin: 0.33

For Cfp1 (GeneID 31880) [DRSC18128], what does the deposit list?
replicate 1, z-score of dpERK with insulin: -1.24

Which result is listed for CG30050 (GeneID 246417) [DRSC05342]?
replicate 1, z-score of dpERK with insulin: 0.44

Which result is listed for PH4alphaSG2 (GeneID 43623) [DRSC15037]?
replicate 1, z-score of dpERK with insulin: 0.56

With Vha68-1 (GeneID 45668) [DRSC03470], how do the results read?
replicate 1, z-score of dpERK with insulin: 0.79

What is on record for CG17834 (GeneID 34191) [DRSC02637]?
replicate 1, z-score of dpERK with insulin: 0.88

For NAAT1 (GeneID 31457) [DRSC18300], how do the results read?
replicate 1, z-score of dpERK with insulin: 0.98

With msopa (GeneID 45962) [DRSC11895], how do the results read?
replicate 1, z-score of dpERK with insulin: -6.89

Records listed so far whose gene name begins with L or l (3):
lncRNA:CR32657 (GeneID 3772397) [DRSC19403] | replicate 1, z-score of dpERK with insulin = -0.55
lncRNA:CR43314 (GeneID 12798160) [DRSC01216] | replicate 1, z-score of dpERK with insulin = 0.7
lncRNA:CR43314 (GeneID 12798160) [DRSC21354] | replicate 1, z-score of dpERK with insulin = -0.57
